Values of other authors, collected in patent publication US9546164B2 (GENENTECH, INC., priority 2013, dated 2017).

Details: administered topically; cited from earlier work

CCN(CC)CC(=O)Nc1c(C)cccc1C [lidocaine]
plasma concentrations: about 1 μM
